Experimental findings from PubChem BioAssay AID2685 (National Center for Advancing Translational Sciences (NCATS), 2010) are described below.

Broadly, the AC50 is the concentration giving half of the maximal activity seen. The low end stands for greater potency, the high end for weaker potency.

Some of the results follow. These are further read-outs of the screen, such as a control signal, another cell line or another target. No call is given for them. Compounds called inactive in the main read-out are mostly missing here. Words in brackets tell the shape of the fitted curve; partial curves, single points and poor fits give uncertain potencies.

A short description of the test: qHTS Assay for Lipid Storage Modulators in Drosophila S3 Cells.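 For cell number change: cells counted by Cell Tracker Red CMTPX staining in the red channel.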 Conditions: BODIPY lipid droplet fluorescence, 18-24 h; for cell number change: measured here: cell count max response, cells fed with added oleic acid. The gist of the method:
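Drosophila S3 cells got compounds at several concentrations plus oleic acid (400 uM solution). Laser-scanning cytometry with 488 nm excitation read lipid droplets at 500-530 nm and cells at 575-640 nm. Percent activity was relative to 20 uM Triacsin C.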

Setting [1] is: measured here: cell number channel AC50, cells fed with added oleic acid.
[2] abbreviates: measured here: lipid fluorescence (Fed channel) AC50, cells fed with added oleic acid.

Take `Cn1nc(C(C)(C)C)cc1C(=O)O`: the cell number change was -0.62%.
For the molecule `CCOc1ccc(C(F)(F)F)cc1NC(C)=O`, the cell number change is 143%. Also, the AC50 under setting [1] is 11.6 µM [rising, partial curve]. Also, the AC50 under setting [2] was 4.11 µM [rising, partial curve].
Turning to `CCOC(=O)c1cc(-c2ccccc2)nc2nc(N3CCCCC3)sc12`, the cell number change was -48.6%. Besides, the AC50 under setting [1] is 0.366 µM [falling, partial curve]. Besides, the AC50 under setting [2] is 0.461 µM [rising, full curve].
As for `COc1ccccc1CNC(=O)C1(C)Oc2cccnc2NC1=O` (stereo not drawn), the cell number change was 15.1%. Also, under setting [2], the concentration at half-maximal activity (AC50) is 0.259 µM [rising, partial curve, poor fit].
`COc1cc(C(=O)N/N=C/c2ccc3c(c2)c2ccccc2n3C)ccc1O`: the cell number change was -50.9%. For the same molecule, under setting [1], the AC50 is 9.2 µM [falling, partial curve].
Turning to `O=C(Nc1ccc(Cl)cc1)Nc1ccccc1Sc1ncc([N+](=O)[O-])s1`, the cell number change was -64.6%. In addition, the concentration at half-maximal activity (AC50) under setting [1] is 29.1 µM [falling, single point].
As to `CCCC(=O)N1N=C(c2ccccc2)CC1c1cn(C)c2ccccc12` (stereo not drawn), the cell number change came out at 42.2%. Also, under setting [1], the AC50 is 10.3 µM [rising, partial curve]. Besides, the AC50 under setting [2] is 18.4 µM [rising, single point].
As for `COCCCn1c(-c2cccc(Cl)c2)nc2c1c(=O)[nH]c(=O)n2Cc1ccccc1`, the cell number change is 11.5%.
As for `CCN(CC)c1ccc(CN(C(=O)c2ccco2)C2CCS(=O)(=O)C2)cc1` (stereo not drawn), the cell number change is -1.63%. For the same molecule, the AC50 under setting [2] was 29.1 µM [rising, single point].
For `COc1ccc(/C=N/N2CCN(Cc3ccc(C)cc3)CC2)cc1Br`, the cell number change stood at 22.3%. Further, under setting [2], the AC50 was 29.1 µM [rising, single point].
As for `OCc1nnn(-c2cccc(C(F)(F)F)c2)c1CO`, the cell number change is -25.9%.
For the molecule `Cc1ccc(Cn2c(=O)n(CCC(=O)NCc3ccc4c(c3)OCO4)c(=O)c3ccccc32)cc1`, the AC50 is, setting by setting: under setting [1], 1.3 µM [rising, partial curve]; under setting [2], 0.82 µM [rising, full curve].
Consider `CN(C)c1ccc(CN(CC2CCCO2)C(=O)c2cc3ccccc3o2)cc1` (stereo not drawn), for which the cell number change was determined as 90.6%. In addition, the AC50 under setting [1] was 29.1 µM [rising, single point].
In the case of `O=C(Nc1cccc(C(=O)O)c1)/C(=C\c1ccccc1)NC(=O)c1ccccc1Cl`, the cell number change is -18.7%. Further, the AC50 under setting [2] is 32.6 µM [falling, single point].
With `Cc1cc(C)n(Cc2cc(C(=O)O)c3ccccc3n2)n1`, the cell number change is -23.1%.
The same measure, in the same setting: to `c1ccc(-c2ccc3c(c2)NC(C2Nc4cc(-c5ccccc5)ccc4O2)O3)cc1` (stereo not drawn) belongs 5.02%.
Consider `Cc1cccc(-n2ccnc2CN2CCN(C(C)C)C(CCO)C2)c1` (stereo not drawn), for which the cell number change came out at 4.9%. For the same molecule, the AC50 under setting [1] is 0.00517 µM [rising, full curve, poor fit].
Take `O=C1CCCCC1Sc1nnc(-c2ccc3c(c2)OCO3)o1` (stereo not drawn): the cell number change amounted to 70.8%. For the same molecule, the AC50 under setting [1] was 25.9 µM [rising, single point]. In addition, under setting [2], the AC50 is 23.1 µM [rising, single point].
On to `Cc1cc(C(=O)OCC(=O)N2CC(C)OC(C)C2)c(C)n1-c1ccccc1` (stereo not drawn), for which the cell number change turned out to be 1.07%. Besides, the AC50 under setting [2] is 8.2 µM [rising, partial curve].
Consider `CCOC(=O)c1c(C)oc2ccc(NS(=O)(=O)c3cccs3)cc12`, for which the cell number change was -12.6%. In addition, the AC50 under setting [2] is 1.46 µM [rising, partial curve].
In the case of `COc1ccc(OC)c(-c2nc3cc4ccccc4cc3nc2-c2ccccc2)c1`, the cell number change is 41.5%. In addition, the AC50 under setting [1] is 0.92 µM [rising, full curve]. Under setting [2], the AC50 is 2.06 µM [rising, full curve].
For the molecule `COC(=O)c1ccccc1NC(=S)N(Cc1ccc2c(c1)OCO2)Cc1cc2cc(OC)ccc2[nH]c1=O`, the cell number change was determined as 19.7%. Moreover, under setting [2], the AC50 is 0.164 µM [rising, full curve].
As for `Cc1sc(NC(=O)c2ccco2)c(C(c2cccnc2)N2CCN(c3ccc(F)cc3)CC2)c1C` (stereo not drawn), under setting [1], the AC50 is 0.116 µM [rising, full curve].
With `CCc1cccc(NC(=S)N2CCC(c3ccccc3)C2)c1` (stereo not drawn), the cell number change is -54.4%. Moreover, the AC50 under setting [1] was 13 µM [falling, partial curve]. Also, the AC50 under setting [2] is 18.4 µM [falling, partial curve].
With `CCN(c1ccc(NC(=O)c2ccc(N3CCCC3=O)cc2)cc1)C(C)C`, the cell number change was 17.1%. Moreover, the AC50 under setting [2] is 11.6 µM [rising, partial curve, poor fit].
Take `CCOc1ccc(OCC(=O)OCC(=O)NNC(=O)c2ccc([N+](=O)[O-])cc2)cc1`: the cell number change was found to be 11.2%. Further, the AC50 under setting [2] is 18.4 µM [falling, single point].
Consider `Cc1ccc2nsnc2c1S(=O)(=O)N(CCO)Cc1cc2cc3c(cc2[nH]c1=O)OCCO3`, for which the cell number change is -35.8%. Under setting [1], the AC50 is 5.8 µM [falling, full curve, poor fit].
As for `Cc1ccc(C(=O)NC2CC(C)(C)NC(C)(C)C2)c(C)c1`, the cell number change is -20.1%. Moreover, the AC50 under setting [2] was 0.000651 µM [falling, full curve, poor fit].
Consider `CCN1CCN(c2ccc(S(=O)(=O)N3CCCCC3)cc2NC(=O)COc2cc(C)ccc2Cl)CC1`, for which the cell number change was found to be 65.9%. The AC50 under setting [1] is 23.1 µM [rising, single point].
For the molecule `Cc1ccc(-n2cc(CNCCCn3ccnc3C)c(-c3ccc(F)cc3)n2)cc1`, the cell number change worked out at 0.242%.
As to `CCn1c(SCC(=O)N2CCCCC2C)nnc1-c1ccc(S(=O)(=O)N2CCN(C)CC2)cc1` (stereo not drawn), the cell number change was 3.72%. Besides, the AC50 under setting [2] is 25.9 µM [falling, partial curve].
On to `CC(=O)Nc1ccc(C(=O)CN2C(=O)CSC2=O)cc1`, for which the cell number change is 5.21%.
For the molecule `CC1Sc2ccc(C(=O)N3CCCC(C(F)(F)F)C3)cc2NC1=O` (stereo not drawn), the cell number change turned out to be 21.8%.
Consider `Cc1ccc(C)c(NC(=S)NCCSc2ccc(Cl)cc2)c1`, for which the cell number change was found to be 1.87%. The AC50 under setting [2] was 29.1 µM [falling, single point].
With `O=C(CSc1nc2ccccc2c(=O)n1Cc1ccccc1)NCc1ccco1`, the cell number change was -12.2%.
As to `COc1ccc(NC(=O)c2c(SC)nsc2SC)cc1`, the cell number change worked out at 62.7%. Moreover, the half-maximal activity concentration (AC50) under setting [1] was 29.1 µM [rising, single point]. For the same molecule, the AC50 under setting [2] was 4.11 µM [rising, partial curve, poor fit].
Consider `CC(C)Oc1ccc(CCC(=O)N/N=C/c2ccncc2)cc1`, for which the cell number change was 6.9%. Moreover, under setting [1], the AC50 is 4.61 µM [rising, single point]. The AC50 under setting [2] was 2.91 µM [rising, full curve, poor fit].
In the case of `C=CCCC(=O)N1CCC(n2nccc2NC(=O)c2ccccc2C)CC1`, the cell number change was -4.4%.
Turning to `COc1ccc(N(CC(=O)N/N=C(\C)c2ccc(C)cc2)S(=O)(=O)c2ccccc2)cc1`, the cell number change turned out to be 15.4%. Further, the AC50 under setting [2] was 20.6 µM [rising, single point].
Regarding `S=c1[nH]nc(-c2cc(-c3ccccc3)n[nH]2)n1/N=C/c1cccs1`, the cell number change is -38.6%. The AC50 under setting [1] was 20.6 µM [falling, single point]. The AC50 under setting [2] is 32.6 µM [falling, single point].
As for `CC1CCc2nc3ccc(S(=O)(=O)N4CCC(C(=O)N5CCCCC5)CC4)cc3c(C(=O)O)c2C1` (stereo not drawn), the cell number change came to 24.4%.
Take `Cc1cc(N2CCCCC2)nc(N2CCOCC2)n1`: the cell number change was -26.7%. For the same molecule, under setting [1], the AC50 is 1.03 µM [falling, full curve]. In addition, the AC50 under setting [2] was 23.1 µM [falling, partial curve].
Take `O=C(O)c1ccccc1Nc1ccccc1C(=O)O`: the cell number change was found to be 8.05%.
With `CCN1C(=O)[C@@H]2[C@@H](c3ccc(-c4ccc(OC)cc4)c(OC)c3)N3CCC[C@@]3(C(=O)OC)[C@@H]2C1=O`, the cell number change stood at 8.78%. Moreover, the AC50 under setting [1] is 0.0058 µM [falling, full curve, poor fit]. Further, under setting [2], the AC50 was 0.00461 µM [falling, full curve, poor fit].
Consider `CC(=O)OC1CCC(OC(C)=O)c2c1n([O-])c(C)c(C)[n+]2=O` (stereo not drawn), for which the AC50 is 1.84 µM [falling, single point] under setting [1] and 0.116 µM [falling, full curve, poor fit] under setting [2].
As to `C=CCN(CC=C)CCOc1cc(C)ccc1[N+](=O)[O-]`, the cell number change amounted to 30.6%. Besides, the AC50 under setting [2] is 13 µM [rising, partial curve].
Regarding `CCCCNc1nc(-c2ccccc2)nc(-n2ccnc2)n1`, the cell number change is -17.8%. Moreover, the AC50 under setting [1] is 2.31 µM [falling, single point]. Under setting [2], the AC50 was 2.59 µM [falling, single point].
On to `Cc1nn(C)c(Cl)c1CN1CCC(n2nccc2NC(=O)C2CCCC2)CC1`, for which the cell number change was found to be 33.2%. For the same molecule, the AC50 under setting [1] is 0.231 µM [rising, full curve].
In the case of `COc1cc(/C=C2\C(=O)ON=C2c2ccccc2)cc(Cl)c1O`, the cell number change was found to be 12.3%. For the same molecule, the AC50 under setting [2] is 16.4 µM [falling, single point].
`O=C(COC(=O)C(Cc1ccccc1)NC(=O)c1ccccc1)c1ccccc1` (stereo not drawn): the cell number change is 24.5%.
For `CCc1nccn1S(=O)(=O)c1ccc(OC)c(OC)c1`, the cell number change turned out to be 1.29%. The AC50 under setting [2] is 8.2 µM [rising, partial curve, poor fit].
For the molecule `CCN(CC)C(=O)c1nn(Cc2ccccc2)c(=O)c2ccccc12`, the cell number change is -17%.
On to `CCN(CC)CCn1c2c(c(SCC(=O)Nc3ccc(C)c(F)c3)nc1=O)CCC2`, for which the cell number change is -44.2%. For the same molecule, the AC50 under setting [1] was 32.6 µM [falling, single point].
Turning to `O=[N+]([O-])c1ccc(S(=O)(=O)CC(CN2CCCCC2)N2CCCCC2)cc1` (stereo not drawn), the cell number change was -50.5%. The AC50 under setting [1] was 5.8 µM [falling, partial curve, poor fit]. In addition, the concentration at half-maximal activity (AC50) under setting [2] was 2.59 µM [falling, partial curve, poor fit].
Consider `Cc1ccc(S(=O)(=O)N/N=C/c2cccc3nccnc23)cc1`, for which the cell number change was -49.3%. Further, the AC50 under setting [1] is 0.13 µM [falling, full curve]. The AC50 under setting [2] was 0.146 µM [falling, full curve].
Regarding `O=S(=O)(Nc1ncnc2c1oc1ccccc12)c1ccc(Cl)s1`, the cell number change is 31.6%. In addition, under setting [1], the AC50 is 29.1 µM [rising, single point].
`O=C(O)c1ccc(-c2nc(-c3ccc(Cl)cc3)cs2)cc1`: the cell number change was -18.9%. Also, the AC50 under setting [1] was 0.366 µM [falling, full curve].
As to `CC(C)NS(=O)(=O)c1ccc(OCC(=O)Nc2cccc(F)c2)cc1`, the cell number change was -20.9%. The AC50 under setting [1] is 0.0164 µM [falling, full curve, poor fit]. Under setting [2], the AC50 is 0.82 µM [falling, full curve].
Consider `COc1ccc(NC(=O)CN2CCC(NC(=O)c3ccco3)CC2)c([N+](=O)[O-])c1`, for which the cell number change was -4.27%. Besides, the AC50 under setting [2] is 3.26 µM [falling, partial curve].
